Several values for one entry are separate records, joined by “and”; a condition that tells them apart may be missing. Identical values can stand only once. The inconclusive results got no clear call from the source; some entries with a clear call stand among them for comparison. For part of these data: A potency beside an inconclusive call is a rough fit, not a confirmed value. Activity calls are given as the source filed them. Unless noted, the call rests on the fitted dose curve.
Columns and labels:
[1] = target: 5-hydroxytryptamine receptor 2A (Homo sapiens) (UniProt P28223); assay: 5-hydroxytryptamine receptor 2A (HTR2A) small molecule antagonists, cell-based qHTS assay (AID 1963586); further: nearly all actives have a fitted effect of over 45% in size; further: potency means the concentration at half of the fitted maximal effect
Method in brief: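 CHO cells stably expressing human HTR2A were plated for 18 h at 37 C, then loaded with calcium dye for 1 h. Compounds were preincubated 5 min at room temperature before DOI (4 nM solution) was added. Kinetic fluorescence was read for 3 min.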

By UniProt entry, the sequences of proteins in these tests, tags left out.
UniProt P28223, whole entry, looked up: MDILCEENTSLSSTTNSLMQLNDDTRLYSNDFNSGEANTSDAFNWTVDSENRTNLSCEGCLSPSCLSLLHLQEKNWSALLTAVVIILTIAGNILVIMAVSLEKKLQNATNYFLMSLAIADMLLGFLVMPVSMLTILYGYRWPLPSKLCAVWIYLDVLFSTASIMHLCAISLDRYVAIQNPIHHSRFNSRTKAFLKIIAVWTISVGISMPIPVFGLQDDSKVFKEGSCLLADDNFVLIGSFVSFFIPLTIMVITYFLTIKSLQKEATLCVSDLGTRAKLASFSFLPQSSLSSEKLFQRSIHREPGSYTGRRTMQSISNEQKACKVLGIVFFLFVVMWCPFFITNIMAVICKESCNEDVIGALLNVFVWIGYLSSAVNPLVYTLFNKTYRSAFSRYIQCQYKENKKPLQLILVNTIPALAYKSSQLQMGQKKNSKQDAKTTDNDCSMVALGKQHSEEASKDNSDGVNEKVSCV
UniProt P14416, whole entry, looked up: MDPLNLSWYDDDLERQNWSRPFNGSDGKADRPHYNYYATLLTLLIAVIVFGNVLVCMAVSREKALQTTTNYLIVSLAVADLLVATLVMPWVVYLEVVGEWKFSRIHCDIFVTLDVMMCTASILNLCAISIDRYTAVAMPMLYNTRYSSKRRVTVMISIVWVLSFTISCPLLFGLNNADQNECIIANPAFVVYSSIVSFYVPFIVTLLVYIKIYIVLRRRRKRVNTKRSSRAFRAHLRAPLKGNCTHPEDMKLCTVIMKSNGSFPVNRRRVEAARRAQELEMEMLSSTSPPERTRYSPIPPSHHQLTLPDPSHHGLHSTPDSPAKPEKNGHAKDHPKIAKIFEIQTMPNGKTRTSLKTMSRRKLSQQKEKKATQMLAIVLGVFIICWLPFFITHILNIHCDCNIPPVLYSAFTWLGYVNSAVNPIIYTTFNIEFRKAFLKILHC

[2] = cAMP Responsive Elements (CRE) small molecule antagonists, cell-based qHTS assay (AID 1963591; active means well fitted inhibition curve with a large enough effect in the signal ratio in the repeat runs, not every such curve was filed as active; inconclusive means weak or mixed curves, or effect the other way; the % refers to the signal ratio; further: potency means the concentration at half of the fitted maximal effect); conditions: CRE-bla HEK293T, beta-lactamase FRET ratio
Method in brief: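 Reporter line CRE-bla HEK 293T in dialyzed-FBS DMEM; cells preincubated 18 h, treated 3 h with compound plus NKH477 (0.25 uM final); LiveBLAzer FRET, 2 h RT.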

[3] = target: Beta-2 adrenergic receptor (Homo sapiens) (UniProt P07550); assay: Adrenergic beta2 receptor (ADRB2) small molecule agonists, cell-based qHTS assay (AID 1963593); conditions: CHO-ADRB2 cells, cAMP HTRF, 30 min; further: potency means the concentration at half of the fitted maximal effect;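 on activation: CHO cells stably overexpressing human ADRB2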
Method in brief: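 CHO cells stably over-expressing ADRB2 were plated overnight at 37C, then dosed with compounds plus a stimulation mix containing 100uM IBMX and 25uM Ro-20-1724 for 0.5hr at room temperature. cAMP was measured by HTRF competition, 1hr.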

[4] = target: D(2) dopamine receptor (Homo sapiens) (UniProt P14416); assay: Dopamine D2 receptor (DRD2) small molecule agonists, cell-based qHTS assay (AID 1963594); conditions: HEK293-DRD2 cAMP HTRF, agonist mode, 30 min; activation: at 92.4 µM (top of the series) unless noted; further: nearly all actives have a fitted effect of over 35% in size; further: potency means the concentration at half of the fitted maximal effect
Method in brief: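 cAMP accumulation in DRD2-HEK293 cells measured by HTRF after 1 h detection; compounds added 10 min before NKH477 (200nM […]) forskolin-analogue stimulation, 30 min at room temperature, with Ro20-1724 present at 0.1 mM final.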

[5] = target: Beta-2 adrenergic receptor (Homo sapiens) (UniProt P07550); assay: Adrenergic beta2 receptor (ADRB2) small molecule antagonists, cell-based qHTS assay (AID 1963592); conditions: CHO-ADRB2 cells, isoproterenol-stimulated cAMP HTRF ratio, 0.5 h; activity change, negative = inhibition: at 92.4 µM (top of the series) unless noted; further: nearly all actives have a fitted effect of over 50% in size
Method in brief: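 Assay format: CHO-ADRB2 cells, 18-20hr seeding at 37C/5% CO2, then compound plus 1nM isoproterenol agonist mix for 0.5hr RT. Homogeneous time-resolved fluorescence cAMP detection after 1hr, expressed as 665/615 nm ratio.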

[6] = target: D(2) dopamine receptor (Homo sapiens) (UniProt P14416); assay: Dopamine D2 receptor (DRD2) small molecule antagonists, cell-based qHTS assay (AID 1963595; active means well fitted inhibition curve with a large enough effect in the signal ratio in the repeat runs, with a control signal flat; inconclusive means weak or mixed curves, or effect the other way; the % refers to the signal ratio); conditions: HEK293-DRD2 cAMP HTRF antagonist mode; activity change, negative = inhibition: at 92.4 µM (top of the series) unless noted
Method in brief: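 In this cell-based antagonist screen, compounds act for 10 min at room temperature before a 30 min challenge with 12 nM quinpirole and 200 nM NKH477. cAMP is quantified by HTRF competition in DRD2-HEK293 cells containing 0.1 mM Ro20-1724.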

[7] = activity change, negative = inhibition: at 92.4 µM (top of the series) unless noted
[8] = activation: at 92.4 µM (top of the series) unless noted
On the % scale 0 is the no-effect control and ±100 the full control effect.

NNc1nnc(NN)c2ccccc12
Potency [1]: inconclusive: 2.6 nM [inhibitor, full curve, poor fit]
Potency [2, 7]: inactive
Potency [3, 8]: inactive

CC(=O)OC/C=C(\C)CC/C=C(\C)CCC=C(C)C
Potency [1]: inactive and inconclusive: 47.2 µM [inhibitor, single point]
activity change, negative = inhibition [2, 7]: inconclusive: 7.69%
activity change, negative = inhibition ([2]; at 92.4 µM (top of the series)): inactive: -3.71%
activation [3, 8]: inconclusive: 1.65%

CC(=O)[C@H]1CC[C@H]2[C@@H]3C[C@H](C)C4=CC(=O)CC[C@]4(C)[C@H]3[C@@H](O)C[C@]12C
Potency [1]: inconclusive: 1630 nM [inhibitor, partial curve, poor fit]
Potency [2, 7]: inconclusive: 11900 nM [activator, full curve, poor fit]
Potency [3, 8]: inactive
Potency [4]: inconclusive: 33500 nM [falling, single point]

Clc1cc(Cl)cc(Cl)c1
Potency [1]: inconclusive: 117 nM [inhibitor, single point]
Potency [2, 7]: inactive
Potency [3, 8]: inactive

OC[C@H]1O[C@@H](O[C@@H]2[C@@H](CO)O[C@](O)(CO)[C@H]2O)[C@H](O)[C@@H](O)[C@H]1O
Potency [1]: inconclusive: 16.3 nM [inhibitor, full curve, poor fit]
Potency [2, 7]: inactive
Potency [3, 8]: inactive

CCC1Nc2cc(Cl)c(S(N)(=O)=O)cc2S(=O)(=O)N1 (configuration not stated)
Potency [1]: inconclusive: 25.9 nM [inhibitor, full curve, poor fit]
Potency [2, 7]: inactive
activity change, negative = inhibition [5]: inconclusive: 3.68% [at 42.5 µM]

CC(C)CCCC(C)NCCC(C)C (configuration not stated)
Potency [1]: inactive
Potency [2, 7]: inactive
activation [3, 8]: inconclusive: 15.7% [at 42.5 µM]

Cn1c(=O)[nH]c2ncn(C)c2c1=O
Potency [1]: inactive
activity change, negative = inhibition [2, 7]: inconclusive: -17.4%
Potency [3, 8]: inconclusive: 68600 nM [activator, single point]

CN(C)CCOCCN(C)C
Potency [1]: inconclusive: 3.8 nM [inhibitor, full curve]
Potency [2, 7]: inactive
activation [3, 8]: inconclusive: -74.8%
activation ([3]; at 92.4 µM (top of the series)): inactive: -21.5%

CCCCc1ccc(Cl)cc1
Potency [1]: inactive
Potency [2, 7]: inactive
activation [3, 8]: inconclusive: -33.5%
Potency [6]: inactive

C[N+]1(C)CCC(=C(c2ccccc2)c2ccccc2)CC1
Potency [1]: inconclusive: 5790 nM [inhibitor, partial curve]
Potency [2, 7]: inactive

O=C(OCc1ccccc1)C(=O)OCc1ccccc1
Potency [1]: inconclusive: 23700 nM [inhibitor, partial curve, poor fit]
activity change, negative = inhibition [5]: inconclusive: -26.6%
Potency [3, 8]: inactive

Cc1cc(O)c(Cl)c(C)c1Cl
Potency [1]: inconclusive: 840 nM [inhibitor, full curve, poor fit]
Potency [2, 7]: inconclusive: 61100 nM [rising, partial curve, poor fit]

Cc1ccc(N)cc1S(=O)(=O)O
Potency [1]: inactive
Potency [2, 7]: inactive
Potency [3, 8]: inactive
Potency [6]: inactive

CN1Cc2cc(C(=O)N3CCC(C4CCNCC4)CC3)ccc2N[C@@H](CC(=O)O)C1=O
Potency [1]: inconclusive: 460 nM [inhibitor, single point]
Potency [2, 7]: inactive

CC(=O)OC1CC(C)OC(C)O1 (configuration not stated)
Potency [1]: inconclusive: 748 nM [inhibitor, full curve, poor fit]
Potency [2, 7]: inactive
Potency [3, 8]: inactive

O=c1c2ccccc2nnn1CCl
Potency [1]: inconclusive: 47200 nM [inhibitor, partial curve, poor fit]
Potency [2, 7]: inactive
Potency [3, 8]: inactive
Potency [4]: inconclusive: 68600 nM [rising, single point]

Cc1cccc(C)c1NC(=O)CN1CCCC1
Potency [1]: inconclusive: 650 nM [inhibitor, full curve, poor fit]
activation [3, 8]: inconclusive: 13% [at 42.5 µM]
activation [4]: inconclusive: -21% [at 42.5 µM]

COc1cc2c(cc1OC)CN(C(=O)[C@H](C)N[C@@H](CCc1ccccc1)C(=O)O)[C@H](C(=O)O)C2
Potency [1]: inactive
activation [3, 8]: inconclusive: 4.33% [at 42.5 µM]

Cc1ccccc1Cl
Potency [1]: inactive and inconclusive: 840 nM [inhibitor, full curve, poor fit]
activation [3, 8]: inconclusive: 20.5%
activation ([3]; at 92.4 µM (top of the series)): inactive: 21.4%
Potency [6]: inactive

CC#N
Potency [1]: inactive
activation [3, 8]: inconclusive: 67.8%
Potency [4]: inactive

CC(C)(C)c1nnc(NS(=O)(=O)c2ccc(N)cc2)s1
Potency [1]: active: 7290 nM
Potency [3, 8]: inactive

CCC(CC)CO
Potency [1]: inactive
Potency [3, 8]: inactive

Nc1nc(=O)n([C@@H]2O[C@H](CO)[C@@H](O)[C@@H]2F)cc1I
Potency [1]: inactive
Potency [3, 8]: inactive

— PubChem BioAssay (Tox21)
